Test results reported in PMC7056645.
Results are given in words; binding and its absence hold for the method and conditions named. Binding seen in cells or lysates may run through a third protein. Some results given as binding are weak or reduced against the parent protein; the word gives no strength.

Amino acid sequences for entries named in this document (tags omitted).
UniProt O00629: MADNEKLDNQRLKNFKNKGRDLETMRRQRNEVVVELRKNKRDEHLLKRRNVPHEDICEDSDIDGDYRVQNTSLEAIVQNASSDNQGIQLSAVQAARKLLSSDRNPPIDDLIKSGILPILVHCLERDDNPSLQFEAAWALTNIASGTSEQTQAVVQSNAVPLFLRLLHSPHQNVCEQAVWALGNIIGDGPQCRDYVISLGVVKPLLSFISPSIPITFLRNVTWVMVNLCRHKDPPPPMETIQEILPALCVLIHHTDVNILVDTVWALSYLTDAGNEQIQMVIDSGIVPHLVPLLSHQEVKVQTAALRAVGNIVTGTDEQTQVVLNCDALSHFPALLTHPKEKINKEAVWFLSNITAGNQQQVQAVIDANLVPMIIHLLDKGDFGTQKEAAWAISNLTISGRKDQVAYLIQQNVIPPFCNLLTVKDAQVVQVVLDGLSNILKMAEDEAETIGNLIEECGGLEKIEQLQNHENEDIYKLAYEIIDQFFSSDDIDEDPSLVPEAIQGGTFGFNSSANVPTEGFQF
UniProt Q14974: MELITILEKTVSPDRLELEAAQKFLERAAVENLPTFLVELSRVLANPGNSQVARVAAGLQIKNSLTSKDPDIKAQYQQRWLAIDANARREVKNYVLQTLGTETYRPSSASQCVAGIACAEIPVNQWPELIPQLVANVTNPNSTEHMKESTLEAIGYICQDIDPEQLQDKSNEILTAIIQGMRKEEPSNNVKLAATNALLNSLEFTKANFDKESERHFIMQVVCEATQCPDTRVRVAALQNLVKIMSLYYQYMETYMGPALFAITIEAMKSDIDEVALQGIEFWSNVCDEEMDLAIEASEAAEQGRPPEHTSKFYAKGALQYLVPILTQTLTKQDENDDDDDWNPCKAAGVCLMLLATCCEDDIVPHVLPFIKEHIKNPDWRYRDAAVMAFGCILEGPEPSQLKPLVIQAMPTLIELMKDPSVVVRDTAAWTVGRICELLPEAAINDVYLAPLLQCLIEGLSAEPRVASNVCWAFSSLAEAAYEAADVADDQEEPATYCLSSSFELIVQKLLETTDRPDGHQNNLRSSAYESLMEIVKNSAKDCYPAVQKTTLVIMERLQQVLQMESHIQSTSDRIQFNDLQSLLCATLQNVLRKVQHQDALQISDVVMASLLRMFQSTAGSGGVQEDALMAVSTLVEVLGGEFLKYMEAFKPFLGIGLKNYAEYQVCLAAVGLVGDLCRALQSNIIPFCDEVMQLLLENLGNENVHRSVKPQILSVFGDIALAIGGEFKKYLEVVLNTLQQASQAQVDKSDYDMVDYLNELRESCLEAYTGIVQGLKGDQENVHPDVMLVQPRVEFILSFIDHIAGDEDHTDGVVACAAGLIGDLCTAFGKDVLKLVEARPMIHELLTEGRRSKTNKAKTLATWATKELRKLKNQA

Target: karyopherin-α4 (KPNA4) with C-terminal FLAG-HA-His6 tag (human) (UniProt O00629)
Experiment: pull-down; His-tag pull-down (Dynabeads His-Tag Isolation & Pulldown) from lysate of SAS cells stably expressing KPNA4-tag, with or without U0126 (10 μM, 24 h); western blot for KPNB1

- binding: binds
Substance: karyopherin-β1 (KPNB1) (from UniProt Q14974 1-876)
